The values that follow come from publication PMC9613470, “Diverse MarR bacterial regulators of auxin catabolism in the plant microbiome” (Nature Microbiology, 2022).

Construct, isoform or probe ends are uncertain for at least one entry. No signal at the amounts used counts as a negative. At least one verdict rests on a figure or table, not on a statement of the authors. Protein sequences can lack the tags named with them.

The target in the series is T1, MarR_73 wild type (Variovorax paradoxus CL14) (UniProt C5CSP2).
T1 sequence (looked up, limits assumed): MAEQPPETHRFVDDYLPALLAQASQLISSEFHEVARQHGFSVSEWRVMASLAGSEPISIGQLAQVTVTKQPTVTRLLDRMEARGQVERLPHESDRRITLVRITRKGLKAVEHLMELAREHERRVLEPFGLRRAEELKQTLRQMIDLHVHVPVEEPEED
Briefly: ITC. As to conditions: wild type did not bind any of the DNA oligos examined, possibly retains ligand from expression, 20 mM HEPES pH 7.4, 300 mM NaCl, 25 C, 25 uM duplex in cell, 0.5 mM protein in syringe, errors are s.e.m. of two runs, recombinant protein.

On to “AATTCATGATTGTGGATACATTCA (double strand) [24 bp duplex]”, for which the binding result was “no binding”.
